Experimental data from PMC7139822, “Flumazenil-Insensitive Benzodiazepine Effects in Recombinant αβ and Neuronal GABAA Receptors” (Brain Sciences, 2020).

Protein sequences, listed by entry. Tags and fused reporters are not part of them. Residues count along the entry.
UniProt P19969, 26-464: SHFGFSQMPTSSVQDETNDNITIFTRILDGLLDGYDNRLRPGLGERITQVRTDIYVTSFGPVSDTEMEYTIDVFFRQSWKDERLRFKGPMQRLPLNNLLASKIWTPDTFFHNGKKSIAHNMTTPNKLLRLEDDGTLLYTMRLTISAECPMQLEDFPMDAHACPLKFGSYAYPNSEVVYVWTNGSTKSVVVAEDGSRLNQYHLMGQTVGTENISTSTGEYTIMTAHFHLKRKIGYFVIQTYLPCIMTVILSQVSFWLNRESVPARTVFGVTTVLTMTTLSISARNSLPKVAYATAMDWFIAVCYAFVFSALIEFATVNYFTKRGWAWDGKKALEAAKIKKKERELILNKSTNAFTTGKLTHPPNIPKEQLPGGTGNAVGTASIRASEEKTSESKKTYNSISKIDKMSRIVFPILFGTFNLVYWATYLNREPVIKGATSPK
UniProt P63138, 26-474: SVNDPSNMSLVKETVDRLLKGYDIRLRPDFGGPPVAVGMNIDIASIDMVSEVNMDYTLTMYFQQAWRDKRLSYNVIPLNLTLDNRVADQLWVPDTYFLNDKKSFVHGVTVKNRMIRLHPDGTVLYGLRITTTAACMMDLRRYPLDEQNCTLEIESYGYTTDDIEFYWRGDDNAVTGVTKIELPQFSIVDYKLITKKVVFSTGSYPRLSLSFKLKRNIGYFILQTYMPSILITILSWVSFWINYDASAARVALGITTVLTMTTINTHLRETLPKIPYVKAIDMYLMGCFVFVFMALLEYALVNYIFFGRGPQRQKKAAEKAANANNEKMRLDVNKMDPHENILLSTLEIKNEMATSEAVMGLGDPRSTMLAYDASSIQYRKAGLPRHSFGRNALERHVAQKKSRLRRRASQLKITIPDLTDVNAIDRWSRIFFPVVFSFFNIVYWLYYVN
UniProt P62813, 28-455: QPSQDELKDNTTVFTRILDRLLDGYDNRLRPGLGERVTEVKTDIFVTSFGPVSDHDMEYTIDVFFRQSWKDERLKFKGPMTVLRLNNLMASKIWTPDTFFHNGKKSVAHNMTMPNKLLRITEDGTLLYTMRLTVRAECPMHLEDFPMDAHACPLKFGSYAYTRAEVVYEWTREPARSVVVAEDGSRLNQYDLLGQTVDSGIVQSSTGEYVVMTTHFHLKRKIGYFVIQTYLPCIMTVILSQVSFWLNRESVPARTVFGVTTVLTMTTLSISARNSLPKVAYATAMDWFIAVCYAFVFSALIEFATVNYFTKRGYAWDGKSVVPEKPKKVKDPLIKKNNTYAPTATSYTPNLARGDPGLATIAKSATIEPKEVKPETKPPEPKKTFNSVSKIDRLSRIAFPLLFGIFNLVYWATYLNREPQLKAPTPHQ
UniProt P23576, 29-451: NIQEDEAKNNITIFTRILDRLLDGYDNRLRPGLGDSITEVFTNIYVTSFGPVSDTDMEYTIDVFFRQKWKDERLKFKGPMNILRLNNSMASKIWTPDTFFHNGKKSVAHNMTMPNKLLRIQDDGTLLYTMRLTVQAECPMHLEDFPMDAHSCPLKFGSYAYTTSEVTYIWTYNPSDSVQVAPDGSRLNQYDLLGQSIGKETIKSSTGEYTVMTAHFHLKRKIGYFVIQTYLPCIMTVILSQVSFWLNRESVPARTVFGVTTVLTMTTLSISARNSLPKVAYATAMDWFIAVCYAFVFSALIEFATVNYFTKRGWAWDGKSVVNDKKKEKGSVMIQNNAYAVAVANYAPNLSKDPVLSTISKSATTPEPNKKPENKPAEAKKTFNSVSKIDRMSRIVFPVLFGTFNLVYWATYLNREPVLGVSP
UniProt P20236, 29-493: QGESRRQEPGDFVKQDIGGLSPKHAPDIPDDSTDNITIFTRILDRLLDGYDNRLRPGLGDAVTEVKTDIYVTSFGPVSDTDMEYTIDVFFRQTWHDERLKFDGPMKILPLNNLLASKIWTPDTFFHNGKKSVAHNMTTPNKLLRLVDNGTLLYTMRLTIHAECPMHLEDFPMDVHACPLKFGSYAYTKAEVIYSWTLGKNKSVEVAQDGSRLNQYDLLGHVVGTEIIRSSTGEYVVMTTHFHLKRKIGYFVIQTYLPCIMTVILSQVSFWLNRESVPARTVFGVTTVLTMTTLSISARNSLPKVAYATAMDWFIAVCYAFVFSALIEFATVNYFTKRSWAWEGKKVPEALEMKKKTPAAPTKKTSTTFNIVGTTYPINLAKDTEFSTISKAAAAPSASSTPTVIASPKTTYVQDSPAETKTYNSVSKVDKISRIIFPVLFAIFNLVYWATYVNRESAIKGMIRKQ

Legend:
α5β2 receptor = molecular target: T1, α5β2 receptor (Rattus norvegicus, UniProt P19969+P63138); conditions: 200 µM; positive allosteric modulator, non-classical site; co-applied with 0.5 μmol/L GABA; −60 mV; pH 7.4
T1 construct: gene Gabra5

α1β2 receptor = α1β2 receptor (Rattus norvegicus, UniProt P62813+P63138); design: gene Gabra1; conditions: 200 µM; positive allosteric modulator, non-classical site; co-applied with 0.1 μmol/L GABA; −60 mV; pH 7.4
α2β2 receptor = molecular target: T2, α2β2 receptor (Rattus norvegicus, UniProt P23576+P63138); conditions: 200 µM; positive allosteric modulator, non-classical site; co-applied with 1 μmol/L GABA; −60 mV; pH 7.4
T2 construct: gene Gabra2

α3β2 receptor = molecular target: T3, α3β2 receptor (Rattus norvegicus, UniProt P20236+P63138); conditions: 200 µM; positive allosteric modulator, non-classical site; co-applied with 0.5 μmol/L GABA; −60 mV; pH 7.4
T3 construct: gene Gabra3

With `CN1C(=O)CN=C(c2ccccc2)c2cc(Cl)ccc21` [Diazepam] as the molecule, how does the “Potentiation of GABA Currents (%) / (Diazepam)” value (“Potentiation … (%) / (Diazepam)” below) (α5β2 receptor) read?
Its value is 316.2 ± 75.2%.

And the “Potentiation … (%) / (Diazepam)” value (α1β2 receptor)?
The value was 214.0 ± 31.4%.

And the “Potentiation … (%) / (Diazepam)” value (α2β2 receptor)?
The value was 213.3 ± 26.7%.

What about the “Potentiation … (%) / (Diazepam)” value (α3β2 receptor) of the same molecule?
The value was 183.2 ± 21.1%.
